Data: patent US7759459B2, “Fluorescent assays for protein kinases” (Albert Einstein College of Medicine of Yeshiva University, priority 2003, dated 2010)

Tested on: PKC in mitotic HeLa cell lysates
Test: PKC activity in mitotic HeLa cell lysates
Assay type: biochemical
Settings: 4.5 μM staurosporine; substrate peptide 2

CN[C@@H]1C[C@H]2O[C@@](C)([C@@H]1OC)n1c3ccccc3c3c4c(c5c6ccccc6n2c5c31)C(=O)NC4 [staurosporine]
effect of inhibitor on fluorescence increase upon lysate addition: blocks the increase in fluorescence intensity
